# Laboratory results as given in PMC4887716 (Iranian Journal of Basic Medical Sciences, 2016).
# Legend:
# P-gp [1] = settings: Caco-2 cells, 10 µM clemastine, 48 hr
# P-gp [2] = settings: in silico model; cited from earlier work
# P-gp [3] = settings: in situ rat brain perfusion; cited from earlier work
# [4] = oral dose 2.68 mg, considering the intestinal fluid volume
structure (smiles),measurement,setting,value
CN1CCC[C@@H]1CCO[C@](C)(c1ccccc1)c1ccc(Cl)cc1 [clemastine],P-gp expression (P-gp/β-actin band intensity) relative to untreated cells,P-gp [1],low expression of P-gp
same,predicted P-gp inhibition,P-gp [2],P-gp inhibitor
same,brain penetration on co-perfusion with cyclosporine-A,P-gp [3],not increased
same,intestinal concentration after maximum recommended oral dose,[4],about 7.8 µM
